Values of other authors as cited in publication PMC2233905 (The Journal of General Physiology, 2004).

Tested on: native rERG currents in GH3 cells
Details: ref Barros et al., 1997; cited from earlier work

COc1ccc(CCN2CCC(Nc3nc4ccccc4n3Cc3ccc(F)cc3)CC2)cc1 [astemizole]
IC50: ~50 nM
